In the supplement of paper PMC12823440, “Inhibitors supercharge kinase turnover through native proteolytic circuits” (Nature, 2025):
Where a name gives a salt, the structure may show the parent alone. The list shows a part of the results. The calls rarely recur for the same compound in another form.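 In K562 cells expressing nanoluciferase-fused kinases, luminescence was recorded at 4 h intervals between 2 and 18 h, normalized as percent of control with DMSO at 100% and a positive control at 0%. A significant (2 sigma) signal drop marks a time point as decreased. The authors' rule for a hit is not shown and takes in more than the number of time points.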

Protein sequences, listed by entry. Tags and fused reporters are not part of them. Lines headed by an entry give the natural chain unless they say otherwise; changes in a name come on top.
UniProt Q9UQM7, whole entry: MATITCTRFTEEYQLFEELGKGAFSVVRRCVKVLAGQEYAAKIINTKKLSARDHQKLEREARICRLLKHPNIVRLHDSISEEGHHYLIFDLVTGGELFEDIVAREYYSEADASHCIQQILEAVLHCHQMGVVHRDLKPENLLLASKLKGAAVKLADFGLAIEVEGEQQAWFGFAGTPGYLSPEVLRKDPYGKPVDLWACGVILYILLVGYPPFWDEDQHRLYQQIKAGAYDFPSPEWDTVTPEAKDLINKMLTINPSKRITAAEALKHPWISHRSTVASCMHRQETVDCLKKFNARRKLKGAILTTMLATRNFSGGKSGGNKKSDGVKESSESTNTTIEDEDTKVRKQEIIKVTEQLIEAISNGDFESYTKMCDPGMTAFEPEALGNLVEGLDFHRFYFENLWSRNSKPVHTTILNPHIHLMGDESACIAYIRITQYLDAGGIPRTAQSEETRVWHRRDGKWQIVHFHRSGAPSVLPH
UniProt Q13555: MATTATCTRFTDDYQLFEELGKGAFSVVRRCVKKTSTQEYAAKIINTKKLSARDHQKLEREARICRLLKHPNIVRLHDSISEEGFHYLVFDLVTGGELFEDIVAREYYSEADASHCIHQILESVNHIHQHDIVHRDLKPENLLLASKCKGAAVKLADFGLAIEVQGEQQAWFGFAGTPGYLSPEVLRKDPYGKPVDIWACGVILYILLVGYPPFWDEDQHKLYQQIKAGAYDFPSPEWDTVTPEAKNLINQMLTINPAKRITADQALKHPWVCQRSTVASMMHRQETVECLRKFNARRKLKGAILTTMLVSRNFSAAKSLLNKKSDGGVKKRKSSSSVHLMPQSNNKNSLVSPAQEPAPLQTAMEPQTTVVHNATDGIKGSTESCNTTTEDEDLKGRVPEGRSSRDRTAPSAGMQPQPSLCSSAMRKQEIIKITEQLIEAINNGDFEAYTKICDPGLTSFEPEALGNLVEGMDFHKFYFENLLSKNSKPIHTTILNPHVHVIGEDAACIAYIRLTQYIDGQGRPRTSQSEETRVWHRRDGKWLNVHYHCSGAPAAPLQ
UniProt Q15131: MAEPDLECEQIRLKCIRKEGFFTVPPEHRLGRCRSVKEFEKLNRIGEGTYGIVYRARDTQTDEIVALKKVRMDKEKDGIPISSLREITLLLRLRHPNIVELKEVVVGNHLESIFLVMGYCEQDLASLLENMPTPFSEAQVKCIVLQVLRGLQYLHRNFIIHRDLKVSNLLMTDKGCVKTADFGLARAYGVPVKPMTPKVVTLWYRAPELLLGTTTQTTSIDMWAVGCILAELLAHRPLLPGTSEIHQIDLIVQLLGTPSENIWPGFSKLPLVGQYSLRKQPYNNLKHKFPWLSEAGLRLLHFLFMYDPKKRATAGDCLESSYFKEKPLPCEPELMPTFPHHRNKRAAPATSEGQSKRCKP
UniProt Q00526: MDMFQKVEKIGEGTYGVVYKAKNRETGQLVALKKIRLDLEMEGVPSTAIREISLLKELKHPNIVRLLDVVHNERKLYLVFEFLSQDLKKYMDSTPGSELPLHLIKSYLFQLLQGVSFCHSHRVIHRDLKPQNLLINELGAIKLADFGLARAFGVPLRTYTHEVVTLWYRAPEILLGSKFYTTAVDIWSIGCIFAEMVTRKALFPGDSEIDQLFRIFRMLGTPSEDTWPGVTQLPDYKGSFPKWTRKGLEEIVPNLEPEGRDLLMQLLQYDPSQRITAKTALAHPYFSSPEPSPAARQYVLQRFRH
UniProt P11802: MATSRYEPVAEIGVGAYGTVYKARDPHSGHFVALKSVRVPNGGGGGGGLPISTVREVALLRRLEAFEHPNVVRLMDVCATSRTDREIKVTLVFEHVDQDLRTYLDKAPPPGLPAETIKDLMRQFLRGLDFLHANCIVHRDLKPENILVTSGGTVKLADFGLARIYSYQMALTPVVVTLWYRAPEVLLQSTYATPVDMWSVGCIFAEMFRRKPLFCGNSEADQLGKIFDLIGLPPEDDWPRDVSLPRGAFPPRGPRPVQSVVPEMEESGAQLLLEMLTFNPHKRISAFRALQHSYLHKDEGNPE
UniProt Q00535, whole entry, looked up: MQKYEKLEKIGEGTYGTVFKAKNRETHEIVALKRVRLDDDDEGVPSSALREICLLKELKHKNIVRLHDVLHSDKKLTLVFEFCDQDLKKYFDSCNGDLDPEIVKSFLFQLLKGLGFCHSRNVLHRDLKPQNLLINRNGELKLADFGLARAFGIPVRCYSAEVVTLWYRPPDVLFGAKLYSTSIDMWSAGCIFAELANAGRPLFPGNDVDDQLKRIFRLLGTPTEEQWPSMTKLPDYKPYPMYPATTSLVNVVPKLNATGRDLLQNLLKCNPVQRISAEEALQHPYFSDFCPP
UniProt Q00534, whole entry: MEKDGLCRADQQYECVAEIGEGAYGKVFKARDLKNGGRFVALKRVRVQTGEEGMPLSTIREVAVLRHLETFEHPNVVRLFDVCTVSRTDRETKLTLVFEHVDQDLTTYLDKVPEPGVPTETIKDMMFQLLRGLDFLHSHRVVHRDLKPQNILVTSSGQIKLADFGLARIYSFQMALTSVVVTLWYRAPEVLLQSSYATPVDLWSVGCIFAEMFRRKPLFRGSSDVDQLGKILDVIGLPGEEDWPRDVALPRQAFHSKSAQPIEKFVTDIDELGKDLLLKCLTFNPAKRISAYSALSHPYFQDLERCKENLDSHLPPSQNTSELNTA
UniProt Q06187: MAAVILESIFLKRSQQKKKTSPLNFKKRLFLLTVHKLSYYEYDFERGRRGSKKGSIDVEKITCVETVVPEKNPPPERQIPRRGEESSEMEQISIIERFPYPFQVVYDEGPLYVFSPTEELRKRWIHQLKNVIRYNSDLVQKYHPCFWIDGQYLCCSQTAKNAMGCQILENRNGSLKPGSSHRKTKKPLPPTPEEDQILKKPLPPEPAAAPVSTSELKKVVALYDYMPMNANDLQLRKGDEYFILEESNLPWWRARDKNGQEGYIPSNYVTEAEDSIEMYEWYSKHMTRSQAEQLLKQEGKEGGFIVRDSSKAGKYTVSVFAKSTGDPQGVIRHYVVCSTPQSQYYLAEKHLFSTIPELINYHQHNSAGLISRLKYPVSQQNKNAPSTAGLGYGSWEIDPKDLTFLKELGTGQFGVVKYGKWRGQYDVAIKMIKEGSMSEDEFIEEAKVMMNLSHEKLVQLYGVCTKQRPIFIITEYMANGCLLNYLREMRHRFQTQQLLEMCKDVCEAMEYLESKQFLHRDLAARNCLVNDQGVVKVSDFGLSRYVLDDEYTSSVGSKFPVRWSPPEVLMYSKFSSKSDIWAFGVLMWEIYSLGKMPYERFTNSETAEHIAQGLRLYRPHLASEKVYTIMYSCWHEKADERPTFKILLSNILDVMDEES

Assays:
Assay in all cases: kinase-Nluc reporter destabilization hit call (1 = scored as downregulated) (binary); higher = compound decreases kinase abundance
Conditions in all cases: K562, 2-18 h
BRAF_V600E = tested on: BRAF_V600E
CAMK2A = CAMK2A (UniProt Q9UQM7)
CAMK2G = CAMK2G (UniProt Q13555)
CDK10 = CDK10 (UniProt Q15131)
CDK2 = CDK2 (UniProt P24941)
CDK3 = CDK3 (UniProt Q00526)
CDK4 = CDK4 (UniProt P11802)
CDK5 = CDK5 (UniProt Q00535)
CDK6 = CDK6 (UniProt Q00534)
BTK = BTK (UniProt Q06187)

Measured: kinase-Nluc reporter destabilization hit call

C=CC(=O)N1CCC([C@@H]2CCNc3c(C(N)=O)c(-c4ccc(Oc5ccccc5)cc4)nn32)CC1 [Zanubrutinib]
inactive: BRAF_V600E; 10 µM 0 | CAMK2A; 10 µM 0 | CAMK2G; 10 µM 0 | CDK10; 10 µM 0 | CDK2; 10 µM 0 | CDK3; 10 µM 0 | CDK4; 10 µM 0 | CDK5; 10 µM 0 | CDK6; 10 µM 0

Cc1cc2ncnn2cc1Nc1ncc2c(n1)n(C1CCOCC1)c(=O)n2C
inactive: BRAF_V600E; 10 µM 0 | BTK; 10 µM 0 | CAMK2A; 10 µM 0 | CDK10; 10 µM 0 | CDK2; 10 µM 0 | CDK3; 10 µM 0 | CDK4; 10 µM 0 | CDK5; 10 µM 0 | CDK6; 10 µM 0

COc1cc(N2CCC(N3CCN(C)CC3)CC2)ccc1Nc1ncc(Cl)c(Nc2ccccc2S(=O)(=O)C(C)C)n1
inactive: BRAF_V600E; 2.5 µM 0 | BTK; 2.5 µM 0 | CAMK2A; 2.5 µM 0 | CAMK2G; 2.5 µM 0 | CDK10; 2.5 µM 0 | CDK2; 2.5 µM 0 | CDK3; 2.5 µM 0 | CDK4; 2.5 µM 0 | CDK5; 2.5 µM 0 | CDK6; 2.5 µM 0

O=C1Cc2c([nH]c3ccc(Br)cc23)-c2ccccc2N1 [Kenpaullone]
inactive: BRAF_V600E; 10 µM 0 | BTK; 10 µM 0 | CAMK2A; 10 µM 0 | CAMK2G; 10 µM 0 | CDK10; 10 µM 0 | CDK2; 10 µM 0 | CDK3; 10 µM 0 | CDK4; 10 µM 0 | CDK5; 10 µM 0 | CDK6; 10 µM 0

COc1ccc(-c2c[nH]c3nccc(-c4ccsc4)c23)c(OC)c1
inactive: BRAF_V600E; 10 µM 0 | BTK; 10 µM 0 | CAMK2A; 10 µM 0 | CAMK2G; 10 µM 0 | CDK10; 10 µM 0 | CDK2; 10 µM 0 | CDK3; 10 µM 0 | CDK4; 10 µM 0 | CDK5; 10 µM 0 | CDK6; 10 µM 0

CCn1c(=O)c(-c2cc(NC(=O)Nc3ccccc3)c(F)cc2Br)cc2cnc(NC)cc21 [Ripretinib]
active: BRAF_V600E; 10 µM 1
inactive: BTK; 10 µM 0 | CAMK2A; 10 µM 0 | CAMK2G; 10 µM 0 | CDK10; 10 µM 0 | CDK2; 10 µM 0 | CDK3; 10 µM 0 | CDK4; 10 µM 0 | CDK5; 10 µM 0 | CDK6; 10 µM 0

Cc1cc(C)n2c1C=C1C=CC(CCC(=O)NCCN3CCN(C/C=C/C(=O)N4CCCC(n5nc(-c6ccc(Oc7ccccc7)cc6)c6c(N)ncnc65)C4)CC3)=[N+]1[B-]2(F)F (configuration not stated)
inactive: BRAF_V600E; 2.5 µM 0 | BTK; 2.5 µM 0 | CAMK2A; 2.5 µM 0 | CAMK2G; 2.5 µM 0 | CDK10; 2.5 µM 0 | CDK2; 2.5 µM 0 | CDK3; 2.5 µM 0 | CDK4; 2.5 µM 0 | CDK5; 2.5 µM 0 | CDK6; 2.5 µM 0

COc1ccc(-c2cc3nccn3c(Nc3ncccc3C(N)=O)n2)cc1OC [BAY 61-3606 (dihydrochloride)]
inactive: BRAF_V600E; 2.5 µM 0 | BTK; 2.5 µM 0 | CAMK2A; 2.5 µM 0 | CAMK2G; 2.5 µM 0 | CDK10; 2.5 µM 0 | CDK2; 2.5 µM 0 | CDK3; 2.5 µM 0 | CDK4; 2.5 µM 0 | CDK6; 2.5 µM 0

CN1CCN(c2ccc3nc(-c4c(N)c5c(F)cccc5[nH]c4=O)[nH]c3c2)CC1 [Dovitinib]
inactive: BRAF_V600E; 2.5 µM 0 | BTK; 2.5 µM 0 | CAMK2A; 2.5 µM 0 | CAMK2G; 2.5 µM 0 | CDK10; 2.5 µM 0 | CDK2; 2.5 µM 0 | CDK3; 2.5 µM 0 | CDK4; 2.5 µM 0 | CDK6; 2.5 µM 0

CC[C@@H]1C(=O)N(C)c2cnc(Nc3ccc(C(=O)NC4CCN(C)CC4)cc3OC)nc2N1C1CCCC1
inactive: CAMK2A; 10 µM 0 | CAMK2G; 10 µM 0 | CDK10; 10 µM 0 | CDK2; 10 µM 0 | CDK3; 10 µM 0 | CDK4; 10 µM 0 | CDK5; 10 µM 0 | CDK6; 10 µM 0

Cc1nc(Nc2ncc(C(=O)Nc3c(C)cccc3Cl)s2)cc(N2CCN(CCO)CC2)n1 [Dasatinib]
inactive: BRAF_V600E; 2.5 µM 0 | CAMK2A; 2.5 µM 0 | CAMK2G; 2.5 µM 0 | CDK10; 2.5 µM 0 | CDK2; 2.5 µM 0 | CDK3; 2.5 µM 0 | CDK4; 2.5 µM 0 | CDK5; 2.5 µM 0 | CDK6; 2.5 µM 0

Cc1ccc(Nc2nccc(N(C)c3ccc4c(C)n(C)nc4c3)n2)cc1S(N)(=O)=O [Pazopanib]
inactive: BRAF_V600E; 10 µM 0 | BTK; 10 µM 0 | CAMK2A; 10 µM 0 | CAMK2G; 10 µM 0 | CDK10; 10 µM 0 | CDK2; 10 µM 0 | CDK3; 10 µM 0 | CDK4; 10 µM 0 | CDK5; 10 µM 0 | CDK6; 10 µM 0

Quoted at random: 2 compounds from above, in no set order.
Cc1ccc(Nc2nccc(N(C)c3ccc4c(C)n(C)nc4c3)n2)cc1S(N)(=O)=O [Pazopanib]
inactive: BRAF_V600E; 10 µM 0 | BTK; 10 µM 0 | CAMK2A; 10 µM 0 | CAMK2G; 10 µM 0 | CDK10; 10 µM 0 | CDK2; 10 µM 0 | CDK3; 10 µM 0 | CDK4; 10 µM 0 | CDK5; 10 µM 0 | CDK6; 10 µM 0

CC[C@@H]1C(=O)N(C)c2cnc(Nc3ccc(C(=O)NC4CCN(C)CC4)cc3OC)nc2N1C1CCCC1
inactive: CAMK2A; 10 µM 0 | CAMK2G; 10 µM 0 | CDK10; 10 µM 0 | CDK2; 10 µM 0 | CDK3; 10 µM 0 | CDK4; 10 µM 0 | CDK5; 10 µM 0 | CDK6; 10 µM 0

Continued:

O=S(=O)(c1cccc2c(O)nccc12)N1CCCNCC1 [Hydroxyfasudil (hydrochloride)]
inactive: BRAF_V600E; 10 µM 0 | BTK; 10 µM 0 | CAMK2A; 10 µM 0 | CAMK2G; 10 µM 0 | CDK10; 10 µM 0 | CDK2; 10 µM 0 | CDK3; 10 µM 0 | CDK4; 10 µM 0 | CDK5; 10 µM 0 | CDK6; 10 µM 0

C[C@@]1(C(=O)Nc2ccc(F)nc2)CCCN1c1nc(Nc2cc(C3CC3)n[nH]2)c2cccn2n1
inactive: BTK; 10 µM 0 | CAMK2A; 10 µM 0 | CAMK2G; 10 µM 0 | CDK10; 10 µM 0 | CDK2; 10 µM 0 | CDK3; 10 µM 0 | CDK4; 10 µM 0 | CDK5; 10 µM 0 | CDK6; 10 µM 0

CCN(CC)CCNC(=O)c1c(C)[nH]c(/C=C2\C(=O)Nc3ccc(F)cc32)c1C [Sunitinib]
inactive: BRAF_V600E; 2.5 µM 0 | BTK; 2.5 µM 0 | CAMK2A; 2.5 µM 0 | CAMK2G; 2.5 µM 0 | CDK10; 2.5 µM 0 | CDK3; 2.5 µM 0 | CDK4; 2.5 µM 0 | CDK6; 2.5 µM 0

CC1(C)CNc2cc(NC(=O)c3cccnc3NCc3ccncc3)ccc21 [Motesanib (Diphosphate)]
inactive: BRAF_V600E; 2.5 µM 0 | BTK; 2.5 µM 0 | CAMK2A; 2.5 µM 0 | CAMK2G; 2.5 µM 0 | CDK10; 2.5 µM 0 | CDK2; 2.5 µM 0 | CDK3; 2.5 µM 0 | CDK4; 2.5 µM 0 | CDK5; 2.5 µM 0 | CDK6; 2.5 µM 0

O=C1NCCc2[nH]c(-c3ccncc3)cc21
inactive: BRAF_V600E; 2.5 µM 0 | CAMK2A; 2.5 µM 0 | CAMK2G; 2.5 µM 0 | CDK10; 2.5 µM 0 | CDK2; 2.5 µM 0 | CDK3; 2.5 µM 0 | CDK4; 2.5 µM 0 | CDK5; 2.5 µM 0 | CDK6; 2.5 µM 0

Cc1cn(-c2cc(NC(=O)c3ccc(C)c(Nc4nccc(-c5cccnc5)n4)c3)cc(C(F)(F)F)c2)cn1 [Nilotinib]
inactive: BRAF_V600E; 2.5 µM 0 | BTK; 2.5 µM 0 | CAMK2A; 2.5 µM 0 | CAMK2G; 2.5 µM 0 | CDK10; 2.5 µM 0 | CDK2; 2.5 µM 0 | CDK3; 2.5 µM 0 | CDK4; 2.5 µM 0 | CDK5; 2.5 µM 0 | CDK6; 2.5 µM 0

COc1cc(N2CCN(C)CC2)ccc1Nc1nccc(-c2cn(C)c3cnccc23)n1
inactive: BRAF_V600E; 10 µM 0 | BTK; 10 µM 0 | CAMK2A; 10 µM 0 | CAMK2G; 10 µM 0 | CDK10; 10 µM 0 | CDK2; 10 µM 0 | CDK3; 10 µM 0 | CDK4; 10 µM 0 | CDK5; 10 µM 0 | CDK6; 10 µM 0

Cc1ccc(O)cc1Nc1ccnc(Nc2cccc(C(N)=O)c2)n1 [Lck inhibitor 2]
inactive: BRAF_V600E; 10 µM 0 | BTK; 10 µM 0 | CAMK2A; 10 µM 0 | CAMK2G; 10 µM 0 | CDK10; 10 µM 0 | CDK2; 10 µM 0 | CDK3; 10 µM 0 | CDK4; 10 µM 0 | CDK5; 10 µM 0 | CDK6; 10 µM 0

C=CC(=O)N1CCC[C@@H](n2nc(-c3ccc(Oc4ccccc4)cc3)c3c(N)ncnc32)C1 [Ibrutinib]
inactive: BRAF_V600E; 2.5 µM 0 | CAMK2A; 2.5 µM 0 | CAMK2G; 2.5 µM 0 | CDK10; 2.5 µM 0 | CDK2; 2.5 µM 0 | CDK3; 2.5 µM 0 | CDK4; 2.5 µM 0 | CDK5; 2.5 µM 0 | CDK6; 2.5 µM 0

O=C(c1ccc(/C=C/c2n[nH]c3ccccc23)cc1)N1CCNCC1
inactive: BRAF_V600E; 2.5 µM 0 | BTK; 2.5 µM 0 | CAMK2A; 2.5 µM 0 | CAMK2G; 2.5 µM 0 | CDK10; 2.5 µM 0 | CDK3; 2.5 µM 0 | CDK4; 2.5 µM 0 | CDK5; 2.5 µM 0 | CDK6; 2.5 µM 0

COc1nccc(-c2c(-c3ccc(F)cc3)ncn2C2CCNCC2)n1
inactive: BRAF_V600E; 10 µM 0 | BTK; 10 µM 0 | CAMK2A; 10 µM 0 | CAMK2G; 10 µM 0 | CDK10; 10 µM 0 | CDK2; 10 µM 0 | CDK3; 10 µM 0 | CDK4; 10 µM 0 | CDK6; 10 µM 0

N#CC(=Cc1cc(Cl)cc(Cl)c1)c1cccnc1
inactive: BTK; 10 µM 0 | CAMK2G; 10 µM 0 | CDK2; 10 µM 0 | CDK4; 10 µM 0 | CDK5; 10 µM 0 | CDK6; 10 µM 0
